The values that follow come from PMC11488581.

Chains of the proteins cited; added tags and fusions are not shown. Lines headed by an entry give the natural chain unless they say otherwise; changes in a name come on top. A line that says so, or that is headed by a name, gives the form on record, which may keep a tag or linker. Residues count along the entry.
UniProt Q09472: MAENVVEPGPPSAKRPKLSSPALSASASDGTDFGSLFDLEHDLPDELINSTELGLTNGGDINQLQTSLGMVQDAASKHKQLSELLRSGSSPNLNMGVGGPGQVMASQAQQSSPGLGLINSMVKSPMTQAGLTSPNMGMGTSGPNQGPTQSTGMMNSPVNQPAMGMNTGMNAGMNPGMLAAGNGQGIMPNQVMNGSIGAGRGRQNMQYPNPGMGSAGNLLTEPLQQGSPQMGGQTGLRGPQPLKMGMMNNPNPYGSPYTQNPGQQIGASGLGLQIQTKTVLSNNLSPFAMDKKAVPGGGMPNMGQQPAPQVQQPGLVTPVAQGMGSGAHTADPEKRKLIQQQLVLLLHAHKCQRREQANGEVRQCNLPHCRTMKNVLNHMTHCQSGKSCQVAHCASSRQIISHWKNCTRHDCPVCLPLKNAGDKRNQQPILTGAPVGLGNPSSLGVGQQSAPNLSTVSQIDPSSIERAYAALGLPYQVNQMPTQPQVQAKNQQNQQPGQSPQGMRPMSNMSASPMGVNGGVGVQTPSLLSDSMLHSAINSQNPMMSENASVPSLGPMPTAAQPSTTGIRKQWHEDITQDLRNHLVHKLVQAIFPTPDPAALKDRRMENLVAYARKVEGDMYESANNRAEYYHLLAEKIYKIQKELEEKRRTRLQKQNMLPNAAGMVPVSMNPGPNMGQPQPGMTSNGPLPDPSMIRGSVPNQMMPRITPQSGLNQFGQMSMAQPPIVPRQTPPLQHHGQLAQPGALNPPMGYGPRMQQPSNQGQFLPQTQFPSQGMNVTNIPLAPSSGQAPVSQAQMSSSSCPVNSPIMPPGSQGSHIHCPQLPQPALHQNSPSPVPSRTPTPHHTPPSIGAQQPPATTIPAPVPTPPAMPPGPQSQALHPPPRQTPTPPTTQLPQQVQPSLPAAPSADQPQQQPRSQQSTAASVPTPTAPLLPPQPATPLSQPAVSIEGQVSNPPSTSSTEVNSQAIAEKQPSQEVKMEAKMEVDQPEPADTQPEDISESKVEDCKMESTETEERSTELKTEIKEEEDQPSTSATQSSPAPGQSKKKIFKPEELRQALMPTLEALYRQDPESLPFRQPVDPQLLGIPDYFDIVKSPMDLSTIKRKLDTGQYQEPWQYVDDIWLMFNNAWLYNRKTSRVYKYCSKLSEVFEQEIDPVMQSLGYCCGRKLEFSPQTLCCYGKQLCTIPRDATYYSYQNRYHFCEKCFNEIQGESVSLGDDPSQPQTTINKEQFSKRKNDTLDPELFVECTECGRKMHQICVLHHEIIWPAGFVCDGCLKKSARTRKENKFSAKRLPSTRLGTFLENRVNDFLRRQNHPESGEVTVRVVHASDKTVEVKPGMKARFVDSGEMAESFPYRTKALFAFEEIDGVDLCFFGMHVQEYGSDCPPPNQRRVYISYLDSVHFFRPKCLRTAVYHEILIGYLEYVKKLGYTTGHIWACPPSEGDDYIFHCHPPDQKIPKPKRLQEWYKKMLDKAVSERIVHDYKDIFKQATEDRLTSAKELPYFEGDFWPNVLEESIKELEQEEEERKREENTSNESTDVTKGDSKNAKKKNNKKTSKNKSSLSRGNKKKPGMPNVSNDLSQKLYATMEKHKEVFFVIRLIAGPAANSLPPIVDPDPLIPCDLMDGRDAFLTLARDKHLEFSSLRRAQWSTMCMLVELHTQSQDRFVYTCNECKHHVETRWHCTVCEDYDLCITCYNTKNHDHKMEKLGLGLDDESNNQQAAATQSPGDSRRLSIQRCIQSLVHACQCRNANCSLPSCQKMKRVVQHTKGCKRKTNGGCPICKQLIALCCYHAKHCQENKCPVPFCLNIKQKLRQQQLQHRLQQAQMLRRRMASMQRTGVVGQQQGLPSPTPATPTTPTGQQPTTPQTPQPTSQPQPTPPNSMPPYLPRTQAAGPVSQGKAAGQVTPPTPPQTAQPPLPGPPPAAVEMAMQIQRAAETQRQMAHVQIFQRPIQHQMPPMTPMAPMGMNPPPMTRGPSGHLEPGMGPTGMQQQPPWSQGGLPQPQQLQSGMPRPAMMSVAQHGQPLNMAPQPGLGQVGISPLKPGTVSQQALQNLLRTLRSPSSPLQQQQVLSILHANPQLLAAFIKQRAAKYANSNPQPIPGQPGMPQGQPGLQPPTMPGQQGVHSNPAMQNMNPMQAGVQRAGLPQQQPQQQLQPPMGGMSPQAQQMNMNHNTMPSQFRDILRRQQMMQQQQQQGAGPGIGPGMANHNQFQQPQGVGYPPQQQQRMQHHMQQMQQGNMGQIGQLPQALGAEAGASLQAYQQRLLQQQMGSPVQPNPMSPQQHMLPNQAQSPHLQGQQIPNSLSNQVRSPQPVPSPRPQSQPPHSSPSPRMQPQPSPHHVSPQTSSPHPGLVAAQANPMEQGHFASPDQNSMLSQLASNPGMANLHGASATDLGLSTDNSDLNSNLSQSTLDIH
flag-tagged P300 truncate: domain containing HAT activity (amino acids 1069-1942): residues 1069-1942 of Q09472

These are yes or no findings as the source states them, for the method shown. Binding seen in cells or lysates may run through a third protein. Some entries that bind do so weakly or less than the wild type.

For experiment [1], the target named is E1A binding protein P300 (human (endogenous in U87MG, T98G)) (UniProt Q09472). As to the kind of experiment: co-IP; P300 and REST in lysates of different GBM cells; IP buffer 50 mM Tris-HCl pH 8.0, 150 mM NaCl, 0.05 mM EDTA, 1% NP40, 10% glycerol; also U87MG and T98G cells treated with DMSO or C646 for 24 h (C646 reduced the interaction).
The target of experiment [2] is flag-tagged P300 truncate: domain containing HAT activity (amino acids 1069-1942) (UniProt Q09472). As to the kind of experiment: co-IP; flag-tagged P300 truncates transfected into U87MG cells; lysate immunoprecipitated with anti-flag or REST antibody and protein A/G agarose; IP buffer 50 mM Tris-HCl pH 8.0, 150 mM NaCl, 0.05 mM EDTA, 1% NP40, 10% glycerol.

B1: Repressor element-1 silencing transcription factor (REST) (protein, UniProt Q13127 1-1097)
chain: MATQVMGQSSGGGGLFTSSGNIGMALPNDMYDLHDLSKAELAAPQLIMLANVALTGEVNGSCCDYLVGEERQMAELMPVGDNNFSDSEEGEGLEESADIKGEPHGLENMELRSLELSVVEPQPVFEASGAPDIYSSNKDLPPETPGAEDKGKSSKTKPFRCKPCQYEAESEEQFVHHIRVHSAKKFFVEESAEKQAKARESGSSTAEEGDFSKGPIRCDRCGYNTNRYDHYTAHLKHHTRAGDNERVYKCIICTYTTVSEYHWRKHLRNHFPRKVYTCGKCNYFSDRKNNYVQHVRTHTGERPYKCELCPYSSSQKTHLTRHMRTHSGEKPFKCDQCSYVASNQHEVTRHARQVHNGPKPLNCPHCDYKTADRSNFKKHVELHVNPRQFNCPVCDYAASKKCNLQYHFKSKHPTCPNKTMDVSKVKLKKTKKREADLPDNITNEKTEIEQTKIKGDVAGKKNEKSVKAEKRDVSKEKKPSNNVSVIQVTTRTRKSVTEVKEMDVHTGSNSEKFSKTKKSKRKLEVDSHSLHGPVNDEESSTKKKKKVESKSKNNSQEVPKGDSKVEENKKQNTCMKKSTKKKTLKNKSSKKSSKPPQKEPVEKGSAQMDPPQMGPAPTEAVQKGPVQVEPPPPMEHAQMEGAQIRPAPDEPVQMEVVQEGPAQKELLPPVEPAQMVGAQIVLAHMELPPPMETAQTEVAQMGPAPMEPAQMEVAQVESAPMQVVQKEPVQMELSPPMEVVQKEPVQIELSPPMEVVQKEPVKIELSPPIEVVQKEPVQMELSPPMGVVQKEPAQREPPPPREPPLHMEPISKKPPLRKDKKEKSNMQSERARKEQVLIEVGLVPVKDSWLLKESVSTEDLSPPSPPLPKENLREEASGDQKLLNTGEGNKEAPLQKVGAEEADESLPGLAANINESTHISSSGQNLNTPEGETLNGKHQTDSIVCEMKMDTDQNTRENLTGINSTVEEPVSPMLPPSAVEEREAVSKTALASPPATMAANESQEIDEDEGIHSHEGSDLSDNMSEGSDDSGLHGARPVPQESSRKNAKEALAVKAAKGDFVCIFCDRSFRKGKDYSKHLNRHLVNVYYLEEAAQGQE
B1: the binding result in experiment [1] and in experiment [2] was “binds” throughout.
